Laboratory results published in paper PMC3297634.

How the values were obtained:
Assay in all cases: two-hybrid; pairwise tests: pNLX3-based (LexA) and pGAD-based constructs, L40 mated with AMR70 or L40 co-transformed; His+ and LacZ+, growth in selective medium
[1] = molecular target: T1, XRLIP 172-Cter (Δ475–492), LexA fusion for two-hybrid (Xenopus laevis) (UniProt Q9PT60)
T1 sequence: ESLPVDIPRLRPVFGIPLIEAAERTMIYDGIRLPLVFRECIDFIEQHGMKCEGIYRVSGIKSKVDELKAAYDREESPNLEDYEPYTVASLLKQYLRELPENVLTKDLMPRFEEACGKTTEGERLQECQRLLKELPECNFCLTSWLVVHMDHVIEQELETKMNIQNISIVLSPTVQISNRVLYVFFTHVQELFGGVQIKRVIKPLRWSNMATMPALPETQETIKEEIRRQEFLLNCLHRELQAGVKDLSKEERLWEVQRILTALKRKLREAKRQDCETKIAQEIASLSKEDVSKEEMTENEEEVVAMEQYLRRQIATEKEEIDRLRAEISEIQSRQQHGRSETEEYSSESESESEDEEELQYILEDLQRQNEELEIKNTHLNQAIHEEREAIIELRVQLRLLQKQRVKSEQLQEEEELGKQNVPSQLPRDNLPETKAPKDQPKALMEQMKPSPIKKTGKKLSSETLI

[2] = molecular target: T2, XRLIP(172–495), LexA fusion for two-hybrid (Xenopus laevis) (UniProt Q9PT60)
T2 sequence: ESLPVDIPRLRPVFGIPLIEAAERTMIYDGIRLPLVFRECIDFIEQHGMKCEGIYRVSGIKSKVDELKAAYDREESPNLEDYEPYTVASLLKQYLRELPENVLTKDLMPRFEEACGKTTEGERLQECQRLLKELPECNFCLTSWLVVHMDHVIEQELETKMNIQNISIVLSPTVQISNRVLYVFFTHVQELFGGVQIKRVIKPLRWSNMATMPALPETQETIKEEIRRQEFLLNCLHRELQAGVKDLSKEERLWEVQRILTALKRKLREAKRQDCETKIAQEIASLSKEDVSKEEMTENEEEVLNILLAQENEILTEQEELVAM

[3] = molecular target: T3, XRLIP(1–323), LexA fusion for two-hybrid (Xenopus laevis) (UniProt Q9PT60)
T3 sequence: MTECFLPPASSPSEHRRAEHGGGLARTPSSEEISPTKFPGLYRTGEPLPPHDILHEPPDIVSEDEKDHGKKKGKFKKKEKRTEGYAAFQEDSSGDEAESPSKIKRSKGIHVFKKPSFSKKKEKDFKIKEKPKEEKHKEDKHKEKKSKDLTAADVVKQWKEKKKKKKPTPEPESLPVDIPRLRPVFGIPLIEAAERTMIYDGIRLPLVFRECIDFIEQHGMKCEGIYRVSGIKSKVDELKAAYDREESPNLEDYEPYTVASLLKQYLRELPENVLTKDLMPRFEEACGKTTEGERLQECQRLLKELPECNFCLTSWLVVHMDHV

[4] = molecular target: T4, XRLIP(330-Cter), LexA fusion for two-hybrid (Xenopus laevis) (UniProt Q9PT60)
T4 sequence: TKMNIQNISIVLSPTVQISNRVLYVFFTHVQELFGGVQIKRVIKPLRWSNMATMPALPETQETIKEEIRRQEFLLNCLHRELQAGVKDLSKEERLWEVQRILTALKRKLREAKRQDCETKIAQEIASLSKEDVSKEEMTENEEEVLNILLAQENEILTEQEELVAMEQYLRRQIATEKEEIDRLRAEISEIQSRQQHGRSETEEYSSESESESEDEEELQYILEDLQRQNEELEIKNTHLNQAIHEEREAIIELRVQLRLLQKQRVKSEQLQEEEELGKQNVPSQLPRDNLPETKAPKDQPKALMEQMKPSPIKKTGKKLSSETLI

[5] = molecular target: T5, XRLIP(469-Cter), LexA fusion for two-hybrid (Xenopus laevis) (UniProt Q9PT60)
T5 sequence: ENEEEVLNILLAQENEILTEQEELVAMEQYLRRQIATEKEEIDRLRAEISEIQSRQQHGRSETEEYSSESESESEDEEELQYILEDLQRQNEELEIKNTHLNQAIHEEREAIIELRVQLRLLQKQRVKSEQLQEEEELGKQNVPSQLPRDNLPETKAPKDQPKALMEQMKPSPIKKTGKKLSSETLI

[6] = molecular target: T6, Xenopus RLIP (XRLIP), LexA fusion for two-hybrid (Xenopus laevis) (UniProt Q9PT60)
T6 sequence: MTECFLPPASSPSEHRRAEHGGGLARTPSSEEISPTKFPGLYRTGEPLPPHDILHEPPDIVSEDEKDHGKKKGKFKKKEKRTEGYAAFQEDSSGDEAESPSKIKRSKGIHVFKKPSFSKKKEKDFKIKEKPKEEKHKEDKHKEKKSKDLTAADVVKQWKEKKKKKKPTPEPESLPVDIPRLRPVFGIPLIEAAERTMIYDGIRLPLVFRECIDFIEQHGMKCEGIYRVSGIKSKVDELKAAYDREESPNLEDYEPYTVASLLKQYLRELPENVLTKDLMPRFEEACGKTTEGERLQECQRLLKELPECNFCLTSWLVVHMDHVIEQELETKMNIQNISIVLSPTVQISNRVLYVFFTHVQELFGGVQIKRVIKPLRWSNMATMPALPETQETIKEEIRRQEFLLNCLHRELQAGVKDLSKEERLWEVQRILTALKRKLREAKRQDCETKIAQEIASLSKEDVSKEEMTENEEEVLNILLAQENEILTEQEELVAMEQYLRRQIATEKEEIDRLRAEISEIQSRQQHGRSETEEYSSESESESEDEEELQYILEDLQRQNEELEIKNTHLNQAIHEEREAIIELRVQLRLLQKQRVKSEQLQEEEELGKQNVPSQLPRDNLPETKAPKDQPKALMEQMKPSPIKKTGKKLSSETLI

Measured: binding

Xreps1(ΔRLIP-BD), pGAD-GE two-hybrid fusion (Xenopus laevis) (domain or fragment)
no binding: all assays above

These are yes or no findings as the source states them, for the method shown. Tags and fused reporters may be left off the sequences shown.
